Data: US20160376359A1
These are yes or no findings as the source states them, for the method shown. Some results given as binding are weak or reduced against the parent protein; the word gives no strength.

Molecular target: T1, human proBDNF protein (prokaryotically expressed, Example 1) (human) (UniProt P23560)
T1 sequence (looked up): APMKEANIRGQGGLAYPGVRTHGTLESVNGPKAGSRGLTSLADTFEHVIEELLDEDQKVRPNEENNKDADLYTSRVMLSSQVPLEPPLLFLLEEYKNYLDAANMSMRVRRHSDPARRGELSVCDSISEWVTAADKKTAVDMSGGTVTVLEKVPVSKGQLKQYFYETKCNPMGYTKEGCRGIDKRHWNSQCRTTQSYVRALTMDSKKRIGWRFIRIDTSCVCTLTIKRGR
Experiment: ELISA on coated human proBDNF with serial dilutions of CHO culture supernatant

B1: human-mouse chimeric antibody CH2B11 (antibody, V domains shown)
VH: EVKVVESGGGLVQPGGSLRLSCATSGFTFTDYYMSWVRQPPGKALEWLGFIRNKANGYTTEYSSSVKGRFTISRDNSQSILYLQMNTLRAEDSATYYCAITMDYWGQGTSVTVSS
VL: DIQMTQSPASLSASVGETVTITCRASGNIHNYLAWYQKKQGKSPHLLVYNAQTLADGVPSRFSGSASGTQYSLKIDSLQPEDFGSYYCQHFWSTPFTFGSGTKLEIKR
binding: binds
